“Also recorded” adds a separate entry of the source. For at least one compound, name, drawing or mass did not settle the structure.
Experiments:
HeLa cells = test: Beta-gal ELISA apoptosis assay in transfected HeLa cells; format: cell-based, human
Experimental: Because BAD Ser155 phosphorylation, like Ser136 phosphorylation, prevents BAD from binding to Bcl-XL (FIG. 1), it was possible that by analogy, Ser155 dephosphorylation promotes cell death. To test this idea, HeLa cells were co-transfected with BAD or various BAD serine mutants and a β-gal reporter plasmid. Twenty-four hours post-transfection, cell viability was analyzed by β-gal ELISA.
To test this idea, HeLa cells were again co-transfected with BAD or various BAD serine mutants and a β-gal reporter plasmid. Forskolin was then added to half of the cultures while the other half was left untreated. Beta-gal ELISAs were performed 24 hours post transfection. […] Thus, phosphorylation of Ser155 rescues cells from BAD-induced apoptosis, while substitution of Ser155 with a nonphosphorylatable residue results in increased cell death and the failure of cells to be protected from induced PKA activity.
Beta-gal ELISA assays were performed using the β-gal ELISA system from Boehringer Mannheim, according to manufacture's instructions. Cells were transfected with BAD (or BAD mutant) and β-gal in a ratio of 5:1. The transfected cells were trypsinized and distributed into 96-well tissue culture plates. Twenty-four hours after transfection, cell extracts were obtained by lysing the cells in lysis buffer. Cell extracts (200 μl) were then added to anti-β-gal-coated microtiter plates (MTP). The MTPs were foil-covered and incubated for one hour at 37° C. Solutions were then decanted and the MTPs were washed, followed by the addition of 200 μl of anti-β-gal-DIG working solution, and incubation for an additional hour as described above. Solutions were again decanted, the MTPs washed and 200 μl of DIG-POD working solution were added. The MTPs were incubated for another hour at 37° C., the solution decanted, and the wells washed. 200 μl of substrate with enhancer were added to each well and incubated at room temperature until color development. The β-gal activity was measured by the absorbance of the sample at […]. Data were based on triplicate wells with standard deviations calculated.

[1] = tested on: BAD Ser155 phosphorylation in HeLa cells; test: BAD phosphorylation in HeLa cells (western blot band-shift / anti-phospho-Ser155 antibody); format: cell-based, human
Experimental: A mammalian expression vector encoding mutant HA-BAD S155A, derived from the shorter murine BAD of SEQ ID NO:3, was constructed. HA-BAD S155A has an amino acid sequence wherein the serine at a position corresponding to Ser155 is substituted with alanine. A western blot was performed on WCL prepared from cells expressing the shorter murine BAD (SEQ ID NO:3), HA-BAD S112A, HA-BAD S136A, or HA-BAD S155A, and probed with anti-HA antibody.
A western blot analysis, probed with anti-HA antibody, was performed on lysates produced from the Forskolin treated and untreated (control) cells to determine whether Forskolin could induce the phosphorylation BAD or mutant BAD.
HeLa cells transiently expressing HA-BAD, HA-BAD S155A, HA-BAD S112A/S136A, or HA-BAD S112A/S136A/S155A were treated with Forskolin or a buffer control.
The HA-BAD S112A/S136A double mutant was transiently expressed in HeLa cells, and transfected cell cultures were treated with each of the GPCR ligands, individually and as a group. A western blot analysis, probed with anti-HA antibody, was performed on lysates produced from the treated and untreated (negative control) cells. […] Forskolin (FK) and no treatment (−) were positive and negative controls, respectively (FIG. 6(a), […], respectively).
Non-transfected HeLa cells were treated with Forskolin or L-epinephrine, followed by western blot analysis of cell lysates using anti-BAD antibodies.
Transformants were treated with L-epinephrine, then lysed and subjected to anti-HA western blot analysis.
(§1) To further test whether phosphorylation of Ser155 is dependent on the PI 3-kinase/Akt pathway, HeLa cells were transfected with the mutant HA-BAD S155A and pretreated with Wortmannin, an inhibitor of PI 3-kinase. These cells were then stimulated with epidermal growth factor (EGF), lysed and analyzed by western blot analysis.
For immunoprecipitation of all HA-BAD species, 1 μg of the anti-HA antibody was added to the cell lysates, and incubated at 4° C. for one hour. Protein G agarose (Pierce) was then added (50 μl/fraction of 50% slurry) and followed by a one hour incubation at 4° C. Beads were washed with RIPA buffer, boiled in loading buffer (2% SDS, 10% glycerol, 5% β-ME, 60 mM Tris, pH 6.8, 0.002% Bromophenol Blue) and loaded onto polyacrylamide gels. After electrophoresis, proteins were transferred to nitrocellulose membranes, and blots blocked in western wash buffer (40 mM Tris, pH 8.0, 150 mM NaCl, 0.2% NP-40) with 5% BSA for one hour at room temperature. […] Polypeptides were detected with the ECL chemiluminescence according to the manufacturers instructions (Amersham).

[2] = tested on: BAD phosphorylation in Rat-1 cells; test: BAD phosphorylation in Rat-1 cells (western blot band-shift / anti-phospho-Ser155 antibody); format: cell-based
From the text: In the absence of a phospho-Ser155 antibody, it was difficult to conclude that this band-shift was solely the result of the phosphorylation of Ser155. However, it appeared that this response was at least primarily due to the phosphorylation at this site. This was based on the combined evidence, both in vitro and in cells, as described above (FIGS. 1, 2 and 4–7) and the fact that Ser155 is the only site of BAD homologous to the substrate consensus sequence of PKA.
Whether the BAD Ser155 kinase, PKA, is also activated by growth factors, and if so, whether such activation is PI 3-kinase dependent, was investigated. […] Cell lysates were analyzed via western blot analysis, probed using anti-HA antibody. […] However, the magnitude of phosphorylation was weaker and may be more transient, than the effect of Forskolin (FIG. 9(a)). Of note, Ser155 phosphorylation following IGF-1, EGF, or PDGF stimulation was not detected in HeLa cells (results not shown).
(§2) It has been documented that Akt kinase activity, the serine kinase shown to phosphorylate BAD Ser136, is induced by growth factors and is dependent on PI 3-kinase activation (Datta et al., 1997; del Peso et al., 1997). In related experiments, Rat-1 cells were pretreated with either the PKA inhibitor H89, or the PI 3-kinase inhibitor Wortmannin (available, e.g., from Sigma, St. Louis, Mo.), followed by stimulation with Forskolin (also available from Sigma) or PDGF. […] This indicated the shift was PKA dependent (FIG. 9(b), lower panel, compare lanes 5 and 6). […] It therefore presumably had no effect on PDGF-induced activation of PI 3-kinase.
To examine whether endogenous BAD is phosphorylated on Ser155 in response to growth factors, serum-starved Rat-1 fibroblasts were stimulated with PDGF. Whole cell lysates were prepared and endogenous BAD was immunoprecipitated. Proteins were separated by SDS-PAGE, and Ser155 phosphorylation was analyzed by Western blot using the phospho-S155 antibody and an anti-BAD antibody.

Akt [3] = test: Akt activation in Rat-1 cells (anti-phospho-S473 Akt western blot); format: cell-based
Experimental: FIG. 9(B) is two western blots. Rat-1 cells transiently expressing HA-BAD S112A/S136A were treated with a buffer control, H89 (PKA inhibitor) or Wortmannin (PI 3-kinase inhibitor), prior to stimulation with Forskolin or platelet-derived growth factor (“PDGF”). Whole cell lysates were then prepared and proteins were separated by SDS-PAGE. Blots were separately probed with an anti-phospho-S473 Akt antibody (the kinase that phosphorylates Ser136) (upper panel) and an anti-BAD antibody (lower panel).
as §2

Akt [4] = test: Akt activation in HeLa cells (anti-phospho-S473 Akt western blot); format: cell-based, human; settings: serum-starved HeLa cells, pretreatment then EGF
From the text: FIG. 10(B) is a series of western blots. Serum-starved HeLa cells expressing HA-BAD S155A, were pretreated with a buffer control (lanes 1 and 2), AG1478 (“AG”) (lane 3), Wortmannin (“Wm”) (lane 4), or H89 (lane 5). The cell cultures were then stimulated with a buffer control (lane 1) or EGF (lanes 2–5). Whole cell lysates were made from the cultures and the proteins were separated by SDS-PAGE. Blots were probed with either an anti-activated EGF receptor antibody (“activated EGFR”) (panel A), an anti-phospho-S473 Akt antibody (“pS473 Akt”) (panel B), or an anti-phospho-S155 BAD antibody (“pS155 BAD”) (panel D). Reblots were probed with either an anti-Akt antibody (“Akt”) (panel C) or an anti-HA BAD antibody (“HA-BAD”) (panel E).
as §1

Row | Compound | reduction of apoptosis (HeLa cells; HeLa cells transfected with BAD S155A mutant or BAD S112A/S136A/S155A triple mutant) | reduction of apoptosis (HeLa cells; HeLa cells transfected with wild-type BAD or BAD S112A/S136A double mutant) | protection of control transfected cells (HeLa cells; control (pcDNA3-GST) transfected HeLa cells) | induction of band-shift of endogenous BAD ([1]; non-transfected HeLa cells) | induction of band-shift (Ser155 phosphorylation) of HA-BAD S112A/S136A ([1]; transfected HeLa cells treated with the agent) | induction of band-shift of endogenous BAD ([2]; Rat-1 cells) | Akt activation by the agent (Akt [3]) | effect on EGF-induced activation/phosphorylation of endogenous Akt (Akt [4]) | inhibition of L-epinephrine-induced band-shift of endogenous BAD ([1]; HeLa cells) | inhibition of EGF-induced phosphorylation of BAD on Ser155 ([1]; serum-starved HeLa cells transfected with HA-BAD S155A (so in the source), pretreatment then EGF, anti-phospho-S155 blot) | inhibition of Forskolin-induced BAD band-shift ([2]; Rat-1 cells) | inhibition of PDGF-induced BAD band-shift/phosphorylation ([2]; Rat-1 cells, pretreatment then PDGF) | inhibition of PDGF-induced Ser155 phosphorylation of endogenous BAD ([2]; serum-starved Rat-1 cells, pretreatment) | effect on PDGF-induced Akt activation (Akt [3]; pretreatment then PDGF)
1 | C=C[C@@]1(C)CC(=O)[C@]2(O)[C@@]3(C)[C@@H](O)CCC(C)(C)[C@@H]3[C@H](O)[C@H](OC(C)=O)[C@@]2(C)O1 [Forskolin] | but not | able to reduce apoptosis | protected control (pcDNA3-GST) transfected cells from the toxicity of lipid-mediated transfection | resulted in a new band-shift | induced a significant band-shift; also recorded: led to a rapid and sustained phosphorylation of BAD on Ser155 | resulted in a BAD band-shift in Rat-1 cells | without activating Akt |  |  |  |  |  |  | 
2 | COC[C@H]1OC(=O)c2coc3c2[C@@]1(C)C1=C(C3=O)[C@@H]2CCC(=O)[C@@]2(C)C[C@H]1OC(C)=O [Wortmannin] |  |  |  |  |  |  |  | prevented the activation of endogenous Akt | but not to Wortmannin | did not impair EGF-induced phosphorylation of BAD on Ser155 | but not to Wortmannin | only partially inhibited PDGF-induced BAD phosphorylation | but not the PI 3-kinase inhibitor Wortmannin | completely blocked PDGF-induced Akt activation

Reference: patent US7193044B1, “Compounds and methods for regulating apoptosis, and methods of making and screening for compounds that regulate apoptosis” (Immunogen, Inc., priority 2000, dated 2007)
